Assay results taken from the supplement of paper PMC10849652.
This is one part of the list.

The chains behind the UniProt entries cited, without tags or fusion partners. Where a name states a change or a piece, a line headed by the entry shows the natural chain unless it says otherwise.
UniProt Q04828: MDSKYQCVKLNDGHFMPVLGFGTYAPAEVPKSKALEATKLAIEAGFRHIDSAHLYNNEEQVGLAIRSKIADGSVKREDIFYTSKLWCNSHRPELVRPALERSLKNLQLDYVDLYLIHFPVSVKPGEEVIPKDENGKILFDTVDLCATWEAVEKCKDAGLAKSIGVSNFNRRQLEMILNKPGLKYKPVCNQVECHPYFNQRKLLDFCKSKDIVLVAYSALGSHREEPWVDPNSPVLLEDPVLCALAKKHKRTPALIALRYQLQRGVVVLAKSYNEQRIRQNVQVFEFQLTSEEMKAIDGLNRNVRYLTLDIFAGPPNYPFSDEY
UniProt P43652: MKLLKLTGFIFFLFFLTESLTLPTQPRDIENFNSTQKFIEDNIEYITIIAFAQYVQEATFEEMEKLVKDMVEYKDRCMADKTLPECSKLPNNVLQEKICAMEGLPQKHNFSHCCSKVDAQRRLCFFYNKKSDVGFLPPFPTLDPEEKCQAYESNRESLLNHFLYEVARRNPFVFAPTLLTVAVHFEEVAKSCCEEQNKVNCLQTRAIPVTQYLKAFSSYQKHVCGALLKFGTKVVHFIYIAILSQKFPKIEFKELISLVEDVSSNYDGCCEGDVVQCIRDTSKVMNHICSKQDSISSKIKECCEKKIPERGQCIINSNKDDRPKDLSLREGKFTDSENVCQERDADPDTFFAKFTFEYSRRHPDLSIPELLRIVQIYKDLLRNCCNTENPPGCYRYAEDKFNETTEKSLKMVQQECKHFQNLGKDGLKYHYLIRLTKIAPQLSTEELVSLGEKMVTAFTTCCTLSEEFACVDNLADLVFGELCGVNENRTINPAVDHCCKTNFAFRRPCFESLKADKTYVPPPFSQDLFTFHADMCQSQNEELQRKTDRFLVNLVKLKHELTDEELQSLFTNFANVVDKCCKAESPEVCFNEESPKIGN
UniProt Q9NRZ5: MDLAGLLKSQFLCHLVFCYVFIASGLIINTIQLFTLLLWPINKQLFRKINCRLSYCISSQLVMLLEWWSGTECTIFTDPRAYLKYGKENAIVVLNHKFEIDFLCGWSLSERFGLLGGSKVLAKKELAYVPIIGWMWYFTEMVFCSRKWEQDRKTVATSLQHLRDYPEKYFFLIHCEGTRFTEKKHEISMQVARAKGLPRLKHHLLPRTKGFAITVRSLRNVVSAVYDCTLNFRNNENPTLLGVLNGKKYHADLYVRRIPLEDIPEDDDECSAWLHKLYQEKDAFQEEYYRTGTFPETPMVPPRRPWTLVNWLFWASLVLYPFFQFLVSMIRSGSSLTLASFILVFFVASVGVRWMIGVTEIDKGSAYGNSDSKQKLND
UniProt Q86TW2: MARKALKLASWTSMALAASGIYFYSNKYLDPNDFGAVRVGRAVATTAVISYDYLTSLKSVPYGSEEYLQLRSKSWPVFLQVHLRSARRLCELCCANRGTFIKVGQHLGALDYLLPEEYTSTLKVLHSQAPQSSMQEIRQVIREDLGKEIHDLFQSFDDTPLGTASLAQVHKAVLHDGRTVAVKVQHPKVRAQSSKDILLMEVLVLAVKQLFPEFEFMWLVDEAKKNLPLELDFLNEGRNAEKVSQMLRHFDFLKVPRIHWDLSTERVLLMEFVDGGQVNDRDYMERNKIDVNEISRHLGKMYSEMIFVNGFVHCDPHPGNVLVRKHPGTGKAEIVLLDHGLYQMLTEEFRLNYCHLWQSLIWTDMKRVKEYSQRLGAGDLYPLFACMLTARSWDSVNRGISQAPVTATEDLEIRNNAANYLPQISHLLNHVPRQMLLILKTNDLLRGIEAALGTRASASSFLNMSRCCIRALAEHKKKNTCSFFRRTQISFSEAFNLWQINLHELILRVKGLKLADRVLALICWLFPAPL
UniProt Q3LIE5: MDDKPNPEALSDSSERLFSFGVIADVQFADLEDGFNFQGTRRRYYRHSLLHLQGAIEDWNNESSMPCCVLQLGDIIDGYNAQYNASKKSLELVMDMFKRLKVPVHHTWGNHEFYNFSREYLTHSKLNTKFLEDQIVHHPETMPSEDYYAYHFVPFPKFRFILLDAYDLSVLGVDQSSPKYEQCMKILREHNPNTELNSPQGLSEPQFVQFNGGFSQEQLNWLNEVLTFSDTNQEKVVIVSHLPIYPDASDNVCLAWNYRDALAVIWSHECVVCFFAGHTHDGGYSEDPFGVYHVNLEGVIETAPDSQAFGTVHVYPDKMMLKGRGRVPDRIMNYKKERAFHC
UniProt Q63HM1: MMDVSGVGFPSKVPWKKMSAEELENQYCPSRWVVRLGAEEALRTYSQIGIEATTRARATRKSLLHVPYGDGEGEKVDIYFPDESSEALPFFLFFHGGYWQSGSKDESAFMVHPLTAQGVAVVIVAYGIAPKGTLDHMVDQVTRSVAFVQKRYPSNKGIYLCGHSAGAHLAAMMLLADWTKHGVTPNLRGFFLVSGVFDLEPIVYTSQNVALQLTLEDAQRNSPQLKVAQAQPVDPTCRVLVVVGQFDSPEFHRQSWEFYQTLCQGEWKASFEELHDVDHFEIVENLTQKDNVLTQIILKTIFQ
UniProt O15254: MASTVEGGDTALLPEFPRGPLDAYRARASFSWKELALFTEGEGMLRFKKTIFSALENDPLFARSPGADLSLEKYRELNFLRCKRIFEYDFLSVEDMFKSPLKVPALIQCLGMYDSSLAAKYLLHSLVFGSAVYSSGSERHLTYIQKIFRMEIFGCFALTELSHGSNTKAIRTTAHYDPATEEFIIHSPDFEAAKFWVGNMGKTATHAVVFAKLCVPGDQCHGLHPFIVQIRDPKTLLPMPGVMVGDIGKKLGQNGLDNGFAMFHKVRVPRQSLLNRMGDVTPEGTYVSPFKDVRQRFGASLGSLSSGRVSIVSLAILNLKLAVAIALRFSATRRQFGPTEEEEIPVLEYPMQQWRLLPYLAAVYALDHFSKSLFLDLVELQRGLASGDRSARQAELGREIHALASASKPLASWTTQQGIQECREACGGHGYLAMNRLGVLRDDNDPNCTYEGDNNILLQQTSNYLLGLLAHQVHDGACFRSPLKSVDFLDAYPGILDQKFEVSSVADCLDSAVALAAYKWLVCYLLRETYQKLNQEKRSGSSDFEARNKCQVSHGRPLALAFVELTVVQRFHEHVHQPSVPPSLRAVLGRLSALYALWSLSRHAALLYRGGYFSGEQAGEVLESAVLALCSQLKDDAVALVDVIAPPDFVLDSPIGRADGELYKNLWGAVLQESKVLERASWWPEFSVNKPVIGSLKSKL
UniProt Q96M93: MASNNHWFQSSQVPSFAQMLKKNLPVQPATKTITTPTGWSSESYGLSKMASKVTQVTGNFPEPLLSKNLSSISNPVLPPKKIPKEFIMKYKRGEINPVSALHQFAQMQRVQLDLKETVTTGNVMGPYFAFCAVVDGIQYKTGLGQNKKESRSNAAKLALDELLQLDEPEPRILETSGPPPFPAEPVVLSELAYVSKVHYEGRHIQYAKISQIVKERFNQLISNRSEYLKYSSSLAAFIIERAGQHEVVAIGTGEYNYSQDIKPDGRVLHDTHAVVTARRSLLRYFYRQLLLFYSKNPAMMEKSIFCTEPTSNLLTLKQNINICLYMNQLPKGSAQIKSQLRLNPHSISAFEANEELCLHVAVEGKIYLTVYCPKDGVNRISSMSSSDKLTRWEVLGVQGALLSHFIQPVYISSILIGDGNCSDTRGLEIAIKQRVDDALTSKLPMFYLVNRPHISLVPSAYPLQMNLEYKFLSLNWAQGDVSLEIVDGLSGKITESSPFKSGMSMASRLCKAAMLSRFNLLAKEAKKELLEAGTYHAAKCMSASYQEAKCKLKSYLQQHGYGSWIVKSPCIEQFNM
UniProt P20933: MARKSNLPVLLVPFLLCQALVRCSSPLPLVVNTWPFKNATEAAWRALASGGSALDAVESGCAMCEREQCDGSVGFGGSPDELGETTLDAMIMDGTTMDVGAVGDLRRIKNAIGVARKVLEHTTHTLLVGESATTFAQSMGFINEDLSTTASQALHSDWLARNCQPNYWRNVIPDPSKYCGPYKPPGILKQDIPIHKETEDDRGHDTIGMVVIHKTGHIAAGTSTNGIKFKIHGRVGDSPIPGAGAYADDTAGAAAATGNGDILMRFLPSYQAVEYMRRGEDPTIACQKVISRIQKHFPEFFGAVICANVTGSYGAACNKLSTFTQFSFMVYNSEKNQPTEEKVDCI
UniProt P78536: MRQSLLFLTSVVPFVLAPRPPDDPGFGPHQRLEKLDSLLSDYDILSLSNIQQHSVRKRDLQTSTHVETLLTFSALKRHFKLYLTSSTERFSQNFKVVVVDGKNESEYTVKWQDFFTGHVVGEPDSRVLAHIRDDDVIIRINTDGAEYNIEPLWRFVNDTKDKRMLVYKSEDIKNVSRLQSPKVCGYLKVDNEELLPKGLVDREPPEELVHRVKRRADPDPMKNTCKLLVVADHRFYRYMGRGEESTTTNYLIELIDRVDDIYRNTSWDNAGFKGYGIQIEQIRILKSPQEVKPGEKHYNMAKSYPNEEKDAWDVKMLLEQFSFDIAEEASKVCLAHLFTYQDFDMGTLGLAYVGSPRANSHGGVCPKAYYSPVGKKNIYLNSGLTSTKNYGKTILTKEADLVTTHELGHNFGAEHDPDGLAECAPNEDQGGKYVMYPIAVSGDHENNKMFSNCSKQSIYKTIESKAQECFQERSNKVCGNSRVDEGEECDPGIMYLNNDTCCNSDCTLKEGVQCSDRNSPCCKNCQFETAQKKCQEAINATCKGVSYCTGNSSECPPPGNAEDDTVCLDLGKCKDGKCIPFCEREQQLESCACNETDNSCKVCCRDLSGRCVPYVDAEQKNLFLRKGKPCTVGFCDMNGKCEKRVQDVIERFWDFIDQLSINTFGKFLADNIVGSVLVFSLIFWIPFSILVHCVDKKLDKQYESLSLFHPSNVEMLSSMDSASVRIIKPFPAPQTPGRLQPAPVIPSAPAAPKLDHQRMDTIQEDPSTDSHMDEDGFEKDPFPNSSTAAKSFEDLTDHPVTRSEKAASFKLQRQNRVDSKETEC
UniProt Q8N157: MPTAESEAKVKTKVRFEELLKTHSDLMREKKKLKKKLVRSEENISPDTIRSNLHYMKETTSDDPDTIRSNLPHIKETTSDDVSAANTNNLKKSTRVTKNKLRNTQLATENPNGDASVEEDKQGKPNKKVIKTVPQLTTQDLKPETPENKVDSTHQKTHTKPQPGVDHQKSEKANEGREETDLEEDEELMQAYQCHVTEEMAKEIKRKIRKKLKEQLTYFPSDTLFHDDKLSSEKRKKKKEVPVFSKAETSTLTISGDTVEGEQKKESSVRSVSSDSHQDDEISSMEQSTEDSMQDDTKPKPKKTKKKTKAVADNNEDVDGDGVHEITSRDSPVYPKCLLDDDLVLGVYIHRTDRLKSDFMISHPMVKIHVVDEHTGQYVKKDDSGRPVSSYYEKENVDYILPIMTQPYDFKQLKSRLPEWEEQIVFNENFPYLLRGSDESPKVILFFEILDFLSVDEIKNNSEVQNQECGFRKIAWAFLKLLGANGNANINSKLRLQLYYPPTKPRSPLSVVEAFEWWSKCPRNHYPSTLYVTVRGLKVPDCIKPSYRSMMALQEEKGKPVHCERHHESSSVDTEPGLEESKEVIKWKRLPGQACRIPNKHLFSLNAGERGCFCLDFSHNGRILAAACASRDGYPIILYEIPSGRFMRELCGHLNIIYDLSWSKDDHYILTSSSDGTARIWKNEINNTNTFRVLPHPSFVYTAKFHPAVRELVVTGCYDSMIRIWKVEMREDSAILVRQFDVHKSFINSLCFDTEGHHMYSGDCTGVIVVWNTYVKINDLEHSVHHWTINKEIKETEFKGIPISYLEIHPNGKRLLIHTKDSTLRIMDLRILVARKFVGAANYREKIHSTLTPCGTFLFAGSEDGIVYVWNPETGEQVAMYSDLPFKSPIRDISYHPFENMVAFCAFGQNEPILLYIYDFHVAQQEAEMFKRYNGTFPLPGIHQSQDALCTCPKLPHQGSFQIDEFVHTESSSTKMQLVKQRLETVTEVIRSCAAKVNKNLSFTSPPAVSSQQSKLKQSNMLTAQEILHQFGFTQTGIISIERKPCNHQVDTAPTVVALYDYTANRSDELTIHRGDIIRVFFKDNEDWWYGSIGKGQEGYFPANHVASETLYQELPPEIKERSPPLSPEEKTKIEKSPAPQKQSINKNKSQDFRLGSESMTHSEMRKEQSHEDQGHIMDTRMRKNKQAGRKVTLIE
UniProt O15120: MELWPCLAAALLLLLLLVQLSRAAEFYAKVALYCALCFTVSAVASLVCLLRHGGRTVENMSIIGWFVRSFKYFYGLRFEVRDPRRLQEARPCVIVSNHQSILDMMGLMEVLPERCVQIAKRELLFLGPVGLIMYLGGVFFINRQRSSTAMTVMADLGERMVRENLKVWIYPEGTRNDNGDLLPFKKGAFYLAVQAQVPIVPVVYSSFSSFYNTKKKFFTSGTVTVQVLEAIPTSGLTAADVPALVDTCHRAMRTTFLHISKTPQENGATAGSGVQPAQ

What follows are targets tested with Cc1cc(Nc2cc(N3CCN(C)CC3)nc(Sc3ccc(NC(=O)C4CC4)cc3)n2)n[nH]1 [tozasertib] (assay: log2 fold change, soluble protein after heating vs DMSO (PISA); higher = thermal stabilisation; K562 lysate, 10 uM; active = over 0.2 and 3.5 SD of the protein, either way, in both replicates (recomputed)).
Procedure, shortened: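 To prepare the extract, K562 pellets were dounce-homogenised in PBS pH 7.4 with 1 mM MgCl2, giving crude material at 1 mg/mL protein. This was treated with 10 μM compound for 30 min, then heated in aliquots for 3 min over 48°C-58°C before pooling and addition of NP-40 to 0.5% at 4°C. Centrifugation at 21,000xg for 90 min left soluble protein in the supernatant, which TMTpro 16plex LC-MS/MS quantified with equalised channel sums. Results are log-two fold changes in thermal stability compared with solvent controls, from duplicates.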

log2 fold change, inactive:
AKR1C1 (UniProt Q04828) -0.019, AFM (UniProt P43652) 0.057, AGPAT4 (UniProt Q9NRZ5) 0.197, ADCK1 (UniProt Q86TW2) -0.076, ADPRM (UniProt Q3LIE5) 0.065, AFMID isoform 2 (UniProt Q63HM1) 0.023, ACOX3 (UniProt O15254) -0.012, ACTR5 (UniProt Q9H9F9) -0.016, ADIPOR1 (UniProt Q96A54) -0.004, ADAD1 (UniProt Q96M93) 0.051, AGA (UniProt P20933) 0.125, ACTR8 (UniProt Q9H981) 0.044, ADAM17 (UniProt P78536) -0.015, AHI1 (UniProt Q8N157) 0.053, ADD2 isoform 9 (UniProt P35612) 0.071, ACTG1 (UniProt K7EM38) 0.207, AGPAT2 (UniProt O15120) 0.048
